For this assay, the target named is Jak2 tyrosine kinase (endogenous, M-MOK cells) (human (endogenous in M-MOK)), O60674. Kind of assay: co-IP; M-MOK cells treated with purified WT or mutant Lnk R8, stimulated with TPO, washed and lysed (1% NP-40, 150 mM NaCl, pH 8.0); anti-Jak2 immunoprecipitation, blot with anti-pentaHis; only the binder purified. To be noted: remark: other sources report otherwise.

No constants are given. Whether binding was seen depends on the method and setting. In cells and extracts the contact can be indirect. Some entries that bind do so weakly or less than the wild type. Tags and fused reporters may be left off the sequences shown.

B1: WT Lnk R8 fusion protein (human wild-type Lnk-6×His-R8), Q9UQQ2 1-575 (protein)
chain: MNGPALQPSSPSSAPSASPAAAPRGWSEFCELHAVAAARELARQYWLFAREHPQHAPLRAELVSLQFTDLFQRYFCREVRDGRAPGRDYRDTGRGPPAKAEASPEPGPGPAAPGLPKARSSEELAPPRPPGPCSFQHFRRSLRHIFRRRSAGELPAAHTAAAPGTPGEAAETPARPGLAKKFLPWSLAREPPPEALKEAVLRYSLADEASMDSGARWQRGRLALRRAPGPDGPDRVLELFDPPKSSRPKLQAACSSIQEVRWCTRLEMPDNLYTFVLKVKDRTDIIFEVGDEQQLNSWMAELSECTGRGLESTEAEMHIPSALEPSTSSSPRGSTDSLNQGASPGGLLDPACQKTDHFLSCYPWFHGPISRVKAAQLVQLQGPDAHGVFLVRQSETRRGEYVLTFNFQGIAKHLRLSLTERGQCRVQHLHFPSVVDMLHHFQRSPIPLECGAACDVRLSSYVVVVSQPPGSCNTVLFPFSLPHWDSESLPHWGSELGLPHLSSSGCPRGLSPEGLPGRSSPPEQIFHLVPSPEELANSLQHLEHEPVNRARDSDYEMDSSSRSHLRAIDNQYTPL
For B1, the binding entry is “binds”.

The record behind these values is publication PMC3154509.
